# Measurements published in the supplement of paper PMC10338343.
# ± gives the standard deviation. Only a part is listed here, and it is no random draw. The uncertainty is large for many entries.
# Experiments:
# [1] = tested on: MILI (PIWIL2) piRISC loaded with piRNA #1 (26 nt); assay: pre-steady-state target cleavage rate (min^-1); higher = faster piRNA-guided slicing of the target; details: guide: piRNA #1 5'p-UGAGGUAGUAGGUUGUAUAGUAUCCA; auxiliary factor: 500 nM mouse GTSF1
# How it was run: (§1)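 Cleave-'n-Seq: a transcribed, DNA-blocked target RNA library (0.1 nM) was mixed with 1 nM active affinity-purified piRISC carrying one synthetic guide, with or without 500 nM GTSF1 partner protein, in HEPES–potassium acetate buffer at 33 °C for 0–8 or 0–960 min. Uncleaved targets were sequenced and normalised to depth and to weakly complementary targets. Three trials were pooled, and k3 was capped at 0.0001 min^-1. The pre-steady-state cleavage rate came from a burst-and-steady-state fit.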
# [2] = tested on: MIWI (PIWIL1) piRISC loaded with piRNA #1 (30 nt); assay: as above; details: guide: piRNA #1 5'p-UGAGGUAGUAGGUUGUAUAGUAUCCAGAGG; auxiliary factor: 500 nM mouse GTSF1
# How it was run: as §1
# [3] = tested on: EfPiwi piRISC loaded with piRNA #1 (26 nt); assay: pre-steady-state target cleavage rate (min^-1); guide: piRNA #1 5'p-UGAGGUAGUAGGUUGUAUAGUAUCCA; MIWI and MILI are mouse PIWI proteins and EfPiwi is from a freshwater sponge; tags in brackets are library labels; higher = faster piRNA-guided slicing of the target; details: auxiliary factor: 500 nM Ephydatia muelleri Gtsf1
# How it was run: as §1
sequence,measurement,setting,value
GGAGACCUAUGAUAUGUUGCUACUACCUCG [g2:g11:cont:t1G],pre-steady-state target cleavage rate,[1],0.000325 ± 0.015
same,pre-steady-state target cleavage rate,[2],0.000617 ± 0.007
same,pre-steady-state target cleavage rate,[3],0.000672 ± 0.008
GGAGACCUAUGAAUACAACCAACUACCUCA,pre-steady-state target cleavage rate,[1],0.00243 ± 0.0026
same,pre-steady-state target cleavage rate,[2],0.000197 ± 0.011
same,pre-steady-state target cleavage rate,[3],0.000914 ± 0.0089
GGAGACCUAUGAUUACUACCUACUACCUGA,pre-steady-state target cleavage rate,[1],0.00141 ± 0.0045
same,pre-steady-state target cleavage rate,[2],0.000226 ± 0.0078
same,pre-steady-state target cleavage rate,[3],0.000263 ± 0.0077
GGAGACCUAUGAUUAGAAGCUACUACCUCA,pre-steady-state target cleavage rate,[1],0.00227 ± 0.003
same,pre-steady-state target cleavage rate,[2],0.00015 ± 0.014
same,pre-steady-state target cleavage rate,[3],0.000621 ± 0.0047
GGAGACCUAUGAUAUGUUGGUACUCCCUCA,pre-steady-state target cleavage rate,[1],0.00032 ± 0.015
same,pre-steady-state target cleavage rate,[2],0.000727 ± 0.0086
same,pre-steady-state target cleavage rate,[3],0.000344 ± 0.0069
GGAGACCUAUGUAUACAUCCAACUACCUCA,pre-steady-state target cleavage rate,[1],0.00296 ± 0.0031
same,pre-steady-state target cleavage rate,[2],0.000303 ± 0.0089
same,pre-steady-state target cleavage rate,[3],0.000587 ± 0.0071
GGAGACCUAUGAUAUGUUGGUACUACCUCCA,pre-steady-state target cleavage rate,[1],0.000262 ± 0.022
same,pre-steady-state target cleavage rate,[2],0.000455 ± 0.0097
same,pre-steady-state target cleavage rate,[3],0.000192 ± 0.014
GGAGACCUAUGAUAUGUUCCAUGUACCUCA,pre-steady-state target cleavage rate,[1],0.000685 ± 0.01
same,pre-steady-state target cleavage rate,[2],0.00139 ± 0.0054
same,pre-steady-state target cleavage rate,[3],0.00114 ± 0.0035
GGAGACCUAUGAUAUGUUGCUUCUACCUCA,pre-steady-state target cleavage rate,[1],0.000407 ± 0.0092
same,pre-steady-state target cleavage rate,[2],0.000524 ± 0.01
same,pre-steady-state target cleavage rate,[3],0.000616 ± 0.0069
GGAGACCUAUGAUAUGAUGCUACUACCUCA,pre-steady-state target cleavage rate,[1],0.00043 ± 0.0085
same,pre-steady-state target cleavage rate,[2],0.001 ± 0.0058
same,pre-steady-state target cleavage rate,[3],0.00159 ± 0.0047
GGAGACCUAUGAUAUGUUGCUACUACCAUCA,pre-steady-state target cleavage rate,[1],0.000603 ± 0.01
same,pre-steady-state target cleavage rate,[2],0.00102 ± 0.0056
same,pre-steady-state target cleavage rate,[3],0.000309 ± 0.0077
GGAGACCUAUGAUUACAACGUACUAGCUCA,pre-steady-state target cleavage rate,[1],0.00212 ± 0.0044
same,pre-steady-state target cleavage rate,[2],0.000124 ± 0.017
same,pre-steady-state target cleavage rate,[3],0.000862 ± 0.0062
GGAGACCUAUGAUAACAUGGUACUACCUCA,pre-steady-state target cleavage rate,[1],0.000213 ± 0.02
same,pre-steady-state target cleavage rate,[2],0.000493 ± 0.0074
same,pre-steady-state target cleavage rate,[3],0.00124 ± 0.006
GGAGACCUAUGAUAUCAACCAACAACCUCA,pre-steady-state target cleavage rate,[1],0.000352 ± 0.0091
same,pre-steady-state target cleavage rate,[2],0.000407 ± 0.0074
same,pre-steady-state target cleavage rate,[3],0.000424 ± 0.018
GGAGAGGAUACUAUACAACGAUCUACCUCA,pre-steady-state target cleavage rate,[1],0.000672 ± 0.01
same,pre-steady-state target cleavage rate,[2],0.000875 ± 0.0092
same,pre-steady-state target cleavage rate,[3],0.00102 ± 0.0033
GGAGACCUAUGAUAACAACCUUCAACCUCA,pre-steady-state target cleavage rate,[1],0.00083 ± 0.0051
same,pre-steady-state target cleavage rate,[2],0.000155 ± 0.015
same,pre-steady-state target cleavage rate,[3],0.00022 ± 0.017
GGAGACCUAUGAUAUGUUGCAUACUACCUCA,pre-steady-state target cleavage rate,[1],0.000535 ± 0.0087
same,pre-steady-state target cleavage rate,[2],0.00101 ± 0.0051
same,pre-steady-state target cleavage rate,[3],0.00115 ± 0.0048
GGAGAGGAAACUAUACAACGUACUACCUCA,pre-steady-state target cleavage rate,[1],0.0138 ± 0.0051
same,pre-steady-state target cleavage rate,[2],0.27 ± 0.037
same,pre-steady-state target cleavage rate,[3],0.00339 ± 0.0016
GGAGACCUAUGAUAUCACCCUACUACCUCA,pre-steady-state target cleavage rate,[1],0.00113 ± 0.0056
same,pre-steady-state target cleavage rate,[2],0.000854 ± 0.0036
same,pre-steady-state target cleavage rate,[3],0.000917 ± 0.009
GGAGACCUAUGAAUACAACCUUCUUCCUCA,pre-steady-state target cleavage rate,[1],0.00127 ± 0.0044
same,pre-steady-state target cleavage rate,[2],0.000292 ± 0.0077
same,pre-steady-state target cleavage rate,[3],0.000303 ± 0.0098
GGAGACCUAUGAAUACAACCAACUAGCUCA,pre-steady-state target cleavage rate,[1],0.00223 ± 0.003
same,pre-steady-state target cleavage rate,[2],0.000781 ± 0.0073
same,pre-steady-state target cleavage rate,[3],0.00021 ± 0.019
GGAGACCUAUGAUAUGUACUUACUACCUCA,pre-steady-state target cleavage rate,[1],0.00077 ± 0.0068
same,pre-steady-state target cleavage rate,[2],0.000657 ± 0.0059
same,pre-steady-state target cleavage rate,[3],0.00171 ± 0.0052
GGAGACCUAUGAUUACAACCUAGAACCUCA,pre-steady-state target cleavage rate,[1],0.00117 ± 0.0047
same,pre-steady-state target cleavage rate,[2],0.000442 ± 0.0055
same,pre-steady-state target cleavage rate,[3],0.000515 ± 0.01
GGAGACCUAUGAUAUGUUGCUACUAUCUCA,pre-steady-state target cleavage rate,[1],0.000282 ± 0.017
same,pre-steady-state target cleavage rate,[2],0.00048 ± 0.013
same,pre-steady-state target cleavage rate,[3],0.00108 ± 0.0043
GGAGACCUAUGAUUACAACCUUCUACGUCA,pre-steady-state target cleavage rate,[1],0.00114 ± 0.0049
same,pre-steady-state target cleavage rate,[2],0.00136 ± 0.0035
same,pre-steady-state target cleavage rate,[3],0.00117 ± 0.0057
GGAGACCUAUGAUAUGUUGGUACAACGUCA,pre-steady-state target cleavage rate,[1],0.000663 ± 0.0088
same,pre-steady-state target cleavage rate,[2],0.000656 ± 0.0064
same,pre-steady-state target cleavage rate,[3],0.00015 ± 0.011
GGAGACCUAUGAUAUCAACCUACUACGACA,pre-steady-state target cleavage rate,[1],0.000272 ± 0.015
same,pre-steady-state target cleavage rate,[2],0.000234 ± 0.0099
same,pre-steady-state target cleavage rate,[3],0.000261 ± 0.023
GGAGACCUAUGAUAACAACCUAGUACCUCA,pre-steady-state target cleavage rate,[1],0.00226 ± 0.0026
same,pre-steady-state target cleavage rate,[2],0.00142 ± 0.0026
same,pre-steady-state target cleavage rate,[3],0.000556 ± 0.0072
GGAGACCUAUGAUAUCAAGCUACUACGUCA,pre-steady-state target cleavage rate,[1],0.000953 ± 0.008
same,pre-steady-state target cleavage rate,[2],0.000686 ± 0.0081
same,pre-steady-state target cleavage rate,[3],0.000571 ± 0.0039
GGAGACCUAUGAUAACUACCUACUACCACA,pre-steady-state target cleavage rate,[1],0.000873 ± 0.0065
same,pre-steady-state target cleavage rate,[2],0.000171 ± 0.014
same,pre-steady-state target cleavage rate,[3],0.000167 ± 0.019
GGAGACCUAUGAUUACAACCUAACUACCUCA,pre-steady-state target cleavage rate,[1],0.00301 ± 0.0031
same,pre-steady-state target cleavage rate,[2],0.000806 ± 0.005
same,pre-steady-state target cleavage rate,[3],0.000543 ± 0.01
GGAGACCUAUGAAAACAACCUAGUACCUCA,pre-steady-state target cleavage rate,[1],0.00164 ± 0.0043
same,pre-steady-state target cleavage rate,[2],0.000733 ± 0.0051
same,pre-steady-state target cleavage rate,[3],0.000844 ± 0.0067
GGAGACGAUACUAUACAACGAUCUACCUCA,pre-steady-state target cleavage rate,[1],0.0015 ± 0.0044
same,pre-steady-state target cleavage rate,[2],0.00152 ± 0.0048
same,pre-steady-state target cleavage rate,[3],0.00224 ± 0.0026
GGAGACCUAUGAUAUGUUGCUCACUACCUCA,pre-steady-state target cleavage rate,[1],0.000285 ± 0.015
same,pre-steady-state target cleavage rate,[2],0.00246 ± 0.0017
same,pre-steady-state target cleavage rate,[3],0.000719 ± 0.0065
GGAGACCUAUGAUAUGUACUACUACCUCA,pre-steady-state target cleavage rate,[1],0.000139 ± 0.013
same,pre-steady-state target cleavage rate,[2],0.000428 ± 0.0083
same,pre-steady-state target cleavage rate,[3],0.00151 ± 0.0051
GGAGACCAUACUAUACAACCUUGAUGGAGA [g10:g23:cont:t1A],pre-steady-state target cleavage rate,[1],0.00032 ± 0.026
same,pre-steady-state target cleavage rate,[2],0.000171 ± 0.021
same,pre-steady-state target cleavage rate,[3],0.000524 ± 0.0059
GGAGACCUAUGAUUACAACCUACAACCUGA,pre-steady-state target cleavage rate,[1],0.00182 ± 0.0039
same,pre-steady-state target cleavage rate,[2],0.000184 ± 0.01
same,pre-steady-state target cleavage rate,[3],0.000849 ± 0.0082
GGAGACCUAUGAUAUGAUGGUACUACCUCA,pre-steady-state target cleavage rate,[1],0.000521 ± 0.011
same,pre-steady-state target cleavage rate,[2],0.00122 ± 0.0043
same,pre-steady-state target cleavage rate,[3],0.000939 ± 0.0028
GGAGACCUAUGAUAACAACCUACUACCUGA,pre-steady-state target cleavage rate,[1],0.00163 ± 0.0032
same,pre-steady-state target cleavage rate,[2],0.000377 ± 0.0056
same,pre-steady-state target cleavage rate,[3],0.000876 ± 0.0059
GGAGACCUAUGAUAACAUCCUUCUACCUCA,pre-steady-state target cleavage rate,[1],0.00239 ± 0.0034
same,pre-steady-state target cleavage rate,[2],0.000309 ± 0.0068
same,pre-steady-state target cleavage rate,[3],0.000378 ± 0.0087
GGAGACCUAUGAUAUGUUGCUACUACCUGCA,pre-steady-state target cleavage rate,[1],0.000358 ± 0.013
same,pre-steady-state target cleavage rate,[2],0.000652 ± 0.0061
same,pre-steady-state target cleavage rate,[3],0.000238 ± 0.012
GGAGACCUAACUAUACAACCUAGUACCUGA,pre-steady-state target cleavage rate,[1],0.000655 ± 0.019
same,pre-steady-state target cleavage rate,[2],0.0015 ± 0.0071
same,pre-steady-state target cleavage rate,[3],0.00261 ± 0.0027
GGAGACCUAUGAUUACAACCACUACCUCA,pre-steady-state target cleavage rate,[1],0.000496 ± 0.011
same,pre-steady-state target cleavage rate,[2],0.000791 ± 0.0068
same,pre-steady-state target cleavage rate,[3],0.000744 ± 0.008
GGAGACCUAUGAUAUCAUCGUACUACCUCA,pre-steady-state target cleavage rate,[1],0.000168 ± 0.015
same,pre-steady-state target cleavage rate,[2],0.000177 ± 0.0083
same,pre-steady-state target cleavage rate,[3],0.000375 ± 0.0059
GGAGACGAUACUAUACAACCUAACUACCUCA,pre-steady-state target cleavage rate,[1],0.0232 ± 0.0036
same,pre-steady-state target cleavage rate,[3],0.0045 ± 0.0021

# Taken from the entries so far for reference:
sequence,measurement,setting,value
GGAGACCUAUGAUAUGAUGGUACUACCUCA,pre-steady-state target cleavage rate,[1],0.000521 ± 0.011
same,pre-steady-state target cleavage rate,[2],0.00122 ± 0.0043
same,pre-steady-state target cleavage rate,[3],0.000939 ± 0.0028
GGAGACCUAUGAUAACAACCUACUACCUGA,pre-steady-state target cleavage rate,[1],0.00163 ± 0.0032
same,pre-steady-state target cleavage rate,[2],0.000377 ± 0.0056
